According to publication PMC7226526:
No constants are given. Whether binding was seen depends on the method and setting. In cells and extracts the contact can be indirect. Some binding calls cover weakened binding; strength is not graded here.

Amino acid sequences for entries named in this document (tags omitted).
UniProt Q13485: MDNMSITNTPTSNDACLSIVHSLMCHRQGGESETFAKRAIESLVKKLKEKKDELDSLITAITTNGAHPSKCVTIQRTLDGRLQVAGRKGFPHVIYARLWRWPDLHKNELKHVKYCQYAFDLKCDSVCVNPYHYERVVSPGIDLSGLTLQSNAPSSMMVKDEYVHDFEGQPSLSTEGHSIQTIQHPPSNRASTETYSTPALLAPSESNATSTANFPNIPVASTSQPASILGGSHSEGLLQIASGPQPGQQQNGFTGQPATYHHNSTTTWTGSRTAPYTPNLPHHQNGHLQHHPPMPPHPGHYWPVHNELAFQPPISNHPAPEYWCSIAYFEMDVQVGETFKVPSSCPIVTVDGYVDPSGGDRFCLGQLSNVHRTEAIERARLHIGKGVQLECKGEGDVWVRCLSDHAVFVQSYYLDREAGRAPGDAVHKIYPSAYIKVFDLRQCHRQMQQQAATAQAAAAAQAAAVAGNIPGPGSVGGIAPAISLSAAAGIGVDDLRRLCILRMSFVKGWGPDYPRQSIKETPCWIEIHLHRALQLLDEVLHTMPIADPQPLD
UniProt O95863: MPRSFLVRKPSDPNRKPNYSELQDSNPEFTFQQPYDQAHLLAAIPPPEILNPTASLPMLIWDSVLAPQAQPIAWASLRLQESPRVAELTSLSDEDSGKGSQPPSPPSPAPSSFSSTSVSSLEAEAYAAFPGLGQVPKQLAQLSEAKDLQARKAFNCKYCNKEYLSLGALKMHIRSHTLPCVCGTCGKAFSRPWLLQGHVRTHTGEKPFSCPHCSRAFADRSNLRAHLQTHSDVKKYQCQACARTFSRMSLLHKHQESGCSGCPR

Target: SMAD Family Member 4 (SMAD4) (human (endogenous in human kidney cell lines)) (UniProt Q13485)
Assay: co-IP; 200 µg total protein of cell lysate incubated with anti-SMAD4 antibody, precipitated with Protein A/G magnetic beads overnight at 4 °C; eluates blotted with anti-SNAIL; cells untreated (control) or treated with 20 mM lactate or 200 µM nicotinamide

binding: binds
Substance: Zinc finger protein SNAI1 (SNAIL) (from UniProt O95863 1-264)
